# Laboratory results: publication PMC9435650
# Sequences of proteins named here, by UniProt entry; tags and fusion partners are left off. Residues count along the entry.
# UniProt P35869, residues 11-848: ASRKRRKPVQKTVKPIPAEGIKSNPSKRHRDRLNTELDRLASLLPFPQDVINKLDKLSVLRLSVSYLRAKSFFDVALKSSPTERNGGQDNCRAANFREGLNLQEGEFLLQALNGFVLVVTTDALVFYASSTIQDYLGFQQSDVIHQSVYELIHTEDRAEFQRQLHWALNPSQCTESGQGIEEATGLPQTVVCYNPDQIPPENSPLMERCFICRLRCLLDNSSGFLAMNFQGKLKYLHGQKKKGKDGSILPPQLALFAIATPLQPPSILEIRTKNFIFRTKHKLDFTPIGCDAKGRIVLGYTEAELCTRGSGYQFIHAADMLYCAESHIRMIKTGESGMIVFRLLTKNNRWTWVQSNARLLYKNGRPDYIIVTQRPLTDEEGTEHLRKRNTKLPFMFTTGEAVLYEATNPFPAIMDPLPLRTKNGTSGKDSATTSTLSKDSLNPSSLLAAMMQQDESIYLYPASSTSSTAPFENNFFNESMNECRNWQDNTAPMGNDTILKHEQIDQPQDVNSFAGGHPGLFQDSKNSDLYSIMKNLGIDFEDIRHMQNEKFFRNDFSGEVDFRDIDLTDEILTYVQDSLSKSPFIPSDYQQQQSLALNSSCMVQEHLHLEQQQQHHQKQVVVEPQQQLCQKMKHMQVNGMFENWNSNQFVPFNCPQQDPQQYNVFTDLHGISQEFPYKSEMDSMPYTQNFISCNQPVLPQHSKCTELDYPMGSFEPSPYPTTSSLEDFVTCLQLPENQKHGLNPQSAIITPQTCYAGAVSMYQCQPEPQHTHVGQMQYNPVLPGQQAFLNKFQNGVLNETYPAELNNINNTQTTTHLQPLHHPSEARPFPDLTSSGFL
# No constants are given. Whether binding was seen depends on the method and setting. Binding seen in cells or lysates may run through a third protein. Some results given as binding are weak or reduced against the parent protein; the word gives no strength.
# Target: aryl hydrocarbon receptor (human (endogenous in primary normal human epidermal keratinocytes)) (UniProt P35869)
# Test: proximity ligation; Duolink proximity ligation on fixed, permeabilised primary human keratinocytes; endogenous proteins; mouse anti-AhR (A-3) with rabbit anti-LC3 or rabbit anti-p62; cells treated with 10 ug/mL hBD-3 or 0.01% acetic acid (vehicle) for 9 hours, with control siRNA or AhR siRNA
substance,measurement,value
sequestosome-1/p62 (from UniProt Q13501 1-440),binding,binds
